Measurements reported in PubChem BioAssay AID485298 (National Center for Advancing Translational Sciences (NCATS), 2010).
Hit rate of the full screen: of about 320,000 compounds, about 740 (0.23%) were called active. The shares of active, inactive and inconclusive entries below differ from those in the screen. Calls come from the whole dose curve; as a rule, active = well fitted activation curve with a large enough effect; inconclusive = small, poorly fitted or top-dose-only effect; inactive = no such curve, though single readings can be large or run the other way. Where the call is inconclusive, the potency comes from a doubtful curve fit. More than one record can exist for a structure, and the calls need not agree.
Potency is the fitted concentration of half-maximal effect.

Assay: qHTS Assay for Small Molecule Inhibitors of Mitochondrial Division or Activators of Mitochondrial Fusion; note: nearly all actives have a fitted effect of over 45% in size;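 for growth rescue (activation): temperature-sensitive fusion mutants such as fzo1-1 at 37 °C on non-fermentable ethanol glycerol medium; % of control where 0% means no effect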
Details: S. cerevisiae fusion-defective mutant growth rescue, CellTiterGlo 48 h; growth rescue (activation): at 46.1 µM (top of the series) unless noted
Method in brief: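 Luminescent cell viability in 1536-well qHTS format served as the measure of rescued growth in ts fusion-mutant S. cerevisiae cultured on non-fermentable YPEG for 48 hours at 37C.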
For `Cc1ccccc1/C=C1\Sc2ccc(C(=O)N3CCN(c4ccccn4)CC3)cc2N(C)C1=O`, the Potency was inconclusive: 20 µM [activator, partial curve]. With `O=C(Cn1c(=O)oc2ccccc21)NCCc1ccccc1Cl` the “growth rescue (activation)” value was inactive: -1.52%. With `CCOc1nc(-c2ccccc2)c2cc(C)ccc2n1` the “growth rescue (activation)” value was inactive: -0.636%. With `COc1ccccc1-n1c(-c2ccccc2)c[nH]c1=S` the Potency was inconclusive: 20 µM [activator, single point]. For `COc1ccccc1-c1oc2ccccc2c1-c1ccc2cc[nH]c2c1`, the Potency was inconclusive: 8.91 µM [activator, single point]. With `O=S(=O)(CC(CN1CCCCC1)N1CCCCC1)c1ccccc1` (stereo not given) the “growth rescue (activation)” value was inactive: -29%. In the case of `CC1(C)CC(=O)C=C(c2cccc3c2Oc2ccccc2S3)C1`, the Potency was inconclusive: 20 µM [activator, single point]. For `COc1ccc(O)c(/C=C2/SC(=S)N(Cc3ccccc3)C2=O)c1`, the “growth rescue (activation)” value was inactive: -9.82%. With `CC(=O)c1ccc(NS(=O)(=O)c2ccc(N)cc2)cc1` the “growth rescue (activation)” value was inactive: 7.57%. In the case of `O=C(NCc1cc([N+](=O)[O-])ccc1O)c1cc(-c2ccncc2)nc2ccccc12`, the “growth rescue (activation)” value was inactive: 0.347%. For `Cc1ccc2nc(NCc3ccccc3)c(C=NCc3ccccc3)c(=O)n2c1`, the Potency was active: 7.94 µM. With `CCOc1ccc(CCNC(=O)c2cc3ccccn3n2)cc1OCC` the “growth rescue (activation)” value was inactive: 1.01%. For `Cc1ccc(OC(=O)c2cccnc2)cc1`, the Potency was inconclusive: 35.5 µM [activator, single point]. For `O=C(O)/C=C\C(=O)NCc1cccnc1`, the Potency was inconclusive: 8.91 µM [activator, partial curve]. In the case of `CCOC(=O)c1cccc(C2=CC(=O)C[C@H](c3ccc(Cl)cc3)C2)c1`, the Potency was inconclusive: 22.4 µM [activator, single point]. For `O=C(CSc1nc(C2CC2)nc2c1cnn2-c1ccccc1)Nc1c[nH]c(=O)[nH]c1=O`, the Potency was inconclusive: 35.5 µM [activator, partial curve, poor fit]. For `COc1ccc(C2c3sc(=O)[nH]c3SC3C4CCC(C4)C23)cc1` (stereo not given), the Potency was inconclusive: 17.8 µM [activator, single point]. With `CCC(=O)NC(=S)NNC(=O)c1ccc(O)cc1` the Potency was inconclusive: 6.31 µM [activator, single point]. With `C=CCSc1nnc(-c2sc(-c3ccccc3)nc2C)n1C` the “growth rescue (activation)” value was inactive: 7.42%. In the case of `COCCn1c(C)cc(C(=O)CSc2n[nH]c(N)n2)c1C`, the “growth rescue (activation)” value was inactive: -4.51%. With `COc1ccc(NC(=O)C2CCCN(S(=O)(=O)c3ccc4c(c3)CCCN4C(C)=O)C2)cc1` (stereo not given) the Potency was inconclusive: 6.31 µM [activator, partial curve]. In the case of `O=Nc1c(O)n(Cc2cccc(C(F)(F)F)c2)c2ccccc12`, the Potency was inconclusive: 22.4 µM [activator, partial curve]. In the case of `CCCC(=NCCc1c(C)[nH]c2ccccc12)C1=C(O)CC(c2ccccc2)CC1=O` (stereo not given), the Potency was inconclusive: 11.2 µM [activator, partial curve]. For `Cc1cc(C(=O)NNC(=O)/C=C/c2ccccc2Cl)c(C)o1`, the “growth rescue (activation)” value was inactive: 2.34%. For `C[C@@]12C(=O)N(c3cccc(F)c3)C(=O)N1[C@H](c1ccc(F)cc1)[C@@H]1C(=O)N(C3CCCCC3)C(=O)[C@@H]12`, the Potency was inconclusive: 6.31 µM [activator, single point]. With `N#Cc1nc(-c2cccc3ccccc23)oc1NCC1CCCO1` (stereo not given) the Potency was inconclusive: 17.8 µM [activator, single point]. For `CSc1ccc(C(=O)c2[nH]c(=O)[nH]c2C)cc1`, the Potency was active: 13 µM. For `Cc1ccc(-c2nnc(CSc3nnc(COc4ccccc4)n3-c3ccccc3)o2)cc1`, the Potency was inconclusive: 25.1 µM [activator, single point]. With `Nc1ccc2c(c1)C(=O)Cc1ccccc1S2` the Potency was inconclusive: 11.2 µM [activator, partial curve]. In the case of `S=C(Nc1ccccc1)Nc1nccs1`, the Potency was inconclusive: 20.6 µM [activator, single point]. For `Cc1cc(C)c(S(=O)(=O)NCc2ccc3c(c2)OCO3)cc1C`, the “growth rescue (activation)” value was inactive: -0.63%. In the case of `CCn1c(Cn2nnc(-c3ccccc3)n2)nnc1SCc1ccc(Cl)c(Cl)c1`, the Potency was inconclusive: 35.5 µM [activator, single point]. With `N#CC1=C(N)OC2=C(C(=O)CC(c3ccccc3)C2)C1c1ccc2c(c1)OCO2` (stereo not given) the Potency was inconclusive: 20 µM [activator, single point]. In the case of `O=C(Nc1ccc(N2C(=O)CCC2=O)cc1Cl)c1cccs1`, the “growth rescue (activation)” value was inactive: 2.26%. For `Cc1nc(NC(=S)NC(=O)c2cccs2)ccc1Br`, the Potency was inconclusive: 35.5 µM [activator, single point]. With `CN(CC(=O)N1CCc2ccccc21)S(=O)(=O)c1ccc(Cl)cc1` the Potency was inconclusive: 22.4 µM [activator, single point]. In the case of `COc1cc2cnc(-c3ccccc3)c(-c3cccc(C(F)(F)F)c3)c2cc1OC`, the Potency was inconclusive: 7.08 µM [activator, single point]. With `CCOC(=O)c1cccc(NC(=O)c2cc3sccc3n2C)c1` the Potency was inconclusive: 17.8 µM [activator, single point]. For `COc1ccc(Nc2nnc(SCC(=O)/C=C3/N(C)c4ccccc4C3(C)C)s2)cc1`, the Potency was inconclusive: 28.2 µM [activator, single point]. In the case of `CN(C)C(=O)c1c(-c2ccccc2)oc2ccc(O)cc12`, the “growth rescue (activation)” value was inactive: 6.59%. In the case of `Cc1cccc(NCc2cc(Cl)cc(Cl)c2O)n1`, the Potency was inconclusive: 11.2 µM [activator, partial curve]. With `Cc1sc2ncnc(N3CCC(C(=O)Nc4cc(Cl)ccc4Cl)CC3)c2c1C` the Potency was inconclusive: 25.1 µM [activator, single point]. For `CN(Cc1ccc(F)cc1)C(=O)c1cccc(OCc2ccccc2)c1`, the Potency was inconclusive: 22.4 µM [activator, single point]. For `COc1ccc(Cl)cc1C(=O)OCC(=O)NC1CCCC(C)C1C` (stereo not given), the Potency was inconclusive: 12.6 µM [activator, single point]. In the case of `O=C(NC1=NCCS1)c1cccc2ccccc12`, the Potency was inconclusive: 3.16 µM [activator, partial curve]. For `Cc1ccc(C)c(NC(=O)CN(C)C(=O)c2ccccc2OCc2ccc(Cl)cc2)c1`, the Potency was inconclusive: 12.6 µM [activator, single point]. For `COC(=O)C1(C)CN(S(=O)(=O)c2ccc(C)cc2)c2cc(OC)ccc2C1=O` (stereo not given), the Potency was active: 14.1 µM. For `Cc1cc(C(=O)COC(=O)c2ccc(O)cc2)c(C)n1CC1COc2ccccc2O1` (stereo not given), the Potency was inconclusive: 20 µM [activator, single point]. For `O=C(OCC(=O)N1CCc2ccccc21)C1CCCN1S(=O)(=O)c1ccc(Cl)cc1` (stereo not given), the Potency was inconclusive: 15.8 µM [activator, single point]. In the case of `O=C(/C=C/c1ccccc1Cl)c1ccccc(=O)c1O`, the Potency was inconclusive: 28.2 µM [activator, single point]. With `O=C(c1ccco1)N1N=C(c2cccs2)CC1c1ccc(F)cc1` (stereo not given) the Potency was inconclusive: 22.4 µM [activator, single point]. With `CCC12C(=O)C(CC)(C(c3ccccc3)=C1c1ccccc1)[C@@H]1C(=O)N(c3ccc(C)cc3)C(=O)C12` (stereo not given in full) the “growth rescue (activation)” value was inactive: -0.0081%. In the case of `Cc1ccccc1Nc1nc(N)nc(-c2oc3ccccc3c2C)n1`, the Potency was inconclusive: 14.1 µM [activator, partial curve]. For `COc1ccc2nc(-c3ccc(N)cc3)[nH]c2c1`, the “growth rescue (activation)” value was inactive: 0.122%. With `COc1cc(/C=C/C(=O)OCC(=O)Nc2ccccc2Sc2ccc(Cl)cc2)ccc1O` the Potency was inconclusive: 11.2 µM [activator, partial curve]. For `Cc1cc(Cn2nnc3ccccc32)c(O)c(C(C)(C)C)c1`, the Potency was inconclusive: 22.4 µM [activator, single point]. For `CCC1=Nc2cc(C(=O)NCc3ccco3)ccc2Sc2ccccc21`, the Potency was inconclusive: 15.8 µM [activator, single point]. With `N=C1S/C(=C\c2ccccc2F)C(=O)N1c1ccc(F)cc1` the “growth rescue (activation)” value was inactive: 4.07%. For `COc1ccc(-c2n[nH]c3c2CN(C(=O)c2ccccc2)CC3)cc1`, the Potency was inconclusive: 25.1 µM [activator, single point]. In the case of `COc1ccc(OC)c(CNn2c(-c3ccccc3F)nc3ccccc3c2=O)c1`, the Potency was inconclusive: 20 µM [activator, partial curve, poor fit]. For `Nc1[nH]nc2nc(-c3ccccc3)[nH]c(=O)c12`, the “growth rescue (activation)” value was inactive: -5.21%. For `Cc1sc2cc3c(c(C(=O)c4ccccc4)[n+]2c1C)-c1cccc2cccc-3c12`, the Potency was inconclusive: 17.8 µM [activator, partial curve]. In the case of `O=C(Nc1nc(SCc2ccc(F)cc2)ns1)c1ccco1`, the Potency was inconclusive: 8.91 µM [activator, partial curve]. With `COc1cccc(CN(C)Cc2cc(=O)oc3cc(O)c(Cl)cc23)c1` the Potency was inconclusive: 15.8 µM [activator, partial curve]. In the case of `COc1cc(OC)cc(C(=O)OCn2nnc3ccccc3c2=O)c1`, the Potency was inconclusive: 17.8 µM [activator, partial curve]. For `Cc1ccc(C(=O)CC(Nc2ccc(F)cc2)c2ccccc2)cc1` (stereo not given), the “growth rescue (activation)” value was inactive: -10.1%. For `N#Cc1c(-c2ccco2)ccn(Cc2cccc(F)c2)c1=O`, the Potency was inconclusive: 35.5 µM [activator, single point]. In the case of `Cc1ccc(SCC(=O)N2N=CCC2c2ccccc2)cc1` (stereo not given), the Potency was inconclusive: 35.5 µM [activator, single point]. For `COc1ccc(C2=NN(c3ccc(C=O)cc3)C(c3ccccc3)C2)cc1` (stereo not given), the Potency was inconclusive: 25.1 µM [activator, single point]. For `Cc1cc(Oc2ccc(C)c(Cl)c2)nc(SCC(=O)c2ccccc2)n1`, the Potency was inconclusive: 35.5 µM [activator, single point].
